Laboratory results published in PubChem BioAssay AID2417 (National Center for Advancing Translational Sciences (NCATS), 2010).
The campaign covered roughly 140,000 compounds. About 4,300 (3.1%) were called active. Inconclusive means that the source gave no clear call. Such entries were picked first, then a sample of the others.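 The calls were made as follows: active = readout at or below -70, meaning at least 70% loss of cells showing the perinucleolar compartment, a nuclear body marking cancer cells; inconclusive = readout between -30 and a set limit; inactive = the rest.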

Assay: High Content Assay for Compounds that inhibit the Assembly of the Perinucleolar Compartment;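 also: plate controls were DMSO wells for no effect and camptothecin positive control wells for full effect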
Conditions: PC3M PTB-GFP, PNC prevalence imaging, 16 h; at 10 µM; stronger effect = lower value
Method in brief: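 Read-out is percentage of cells bearing a perinucleolar compartment, from automated 20x imaging of fixed, Hoechst-stained PC3M PTB-GFP cells. Cells were seeded 4 h, then exposed 16 h to compound (23 nl of library stock) in duplicate plates.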

Row | SMILES | activity change (PNC), negative = inhibition
1 | COC(=O)c1c(NS(=O)(=O)c2ccc(C)cc2)sc2c1CCC(C)C2 (configuration not stated) | inconclusive: -71.8%
2 | Cc1ccc(C)c(NC(=O)c2cnn3ccccc23)c1 | inconclusive: -34.9%
3 | COC(=O)C1(CCSC)NC(c2ccco2)C2C(=O)N(C)C(=O)C21 (configuration not stated) | inconclusive: -31.7%
4 | C/C(=N\O)C(=O)NCc1ccccn1 | inconclusive: -47.2%
5 | O=C(CCC(=O)N/N=C/c1ccc(Br)s1)NCc1ccccc1 | inconclusive: -33.3%
6 | CC(=O)NNc1nc2ccccc2s1 | inactive: 58.3%
7 | Nc1c(C(=O)NCc2ccc3c(c2)OCO3)nnn1-c1ccc(OC(F)(F)F)cc1 | inconclusive: -68.7%
8 | O=C(c1ccc2c(Cl)c3c(nc2c1)CCCC3)N1CCN(c2ccc(F)cc2)CC1 | inactive: 7.13%
9 | COC(=O)c1cccc(NC(=O)c2cc(OC)c(OC)c(OC)c2Br)c1 | inactive: 2.53%
10 | Cc1ccc(NC(=S)NC(NC(=O)Cc2cccc3ccccc23)C(Cl)(Cl)Cl)cc1 (configuration not stated) | inconclusive: -48.1%
11 | O=C(NCc1ccc2c(c1)OCO2)c1cc2c(s1)CS(=O)(=O)C2 | inconclusive: -51.5%
12 | COc1ccc(NC(=O)C2CCC(=O)N2)cc1 (configuration not stated) | inconclusive: -51.6%
13 | O=C(NCc1ccncc1)c1cccc(F)c1 | inconclusive: -64.7%
14 | COc1ccccc1NC(=O)C(O)C(O)C(=O)Nc1ccccc1OC (configuration not stated) | inconclusive: -65.5%
15 | CCCCN(CCCC)C(=O)CN(C)S(=O)(=O)c1ccc2c(c1)n(C)c(=O)c(=O)n2C | inconclusive: -60.6%
16 | COc1ccccc1OCCOCCOc1ccccc1Cl | inconclusive: -52.7%
17 | C#CCn1c(S(=O)(=O)Cc2ccc(F)cc2)nc(-c2ccccc2)c1-c1ccccc1 | active: -106%
18 | O=C(CN1CCN(Cc2ccccc2)CC1)N/N=C/c1c[nH]c2ccccc12 | inactive: 25.7%
19 | COc1ccc(NC(=O)CCC(=O)c2cccs2)cc1S(=O)(=O)Nc1ccc(Cl)cc1 | inconclusive: -33.3%
20 | c1ccc(Cn2c(NCc3ccco3)nc3ccccc32)cc1 | inconclusive: -42%
21 | CCOC(=O)C(C)S(=O)(=O)c1ccc(C(F)(F)F)cn1 (configuration not stated) | inconclusive: -38%
22 | N#Cc1c(F)cccc1N1CCOCC1 | inconclusive: -39.8%
23 | O=C1CSC(c2ccco2)N1 (configuration not stated) | inactive: -10.6%

Row | SMILES | activity change (PNC), negative = inhibition
24 | O=C(CCn1nc(-c2ccc(Cl)cc2)c2ccccc2c1=O)NCC1CCCO1 (configuration not stated) | inconclusive: -56.4%
25 | Cc1ccc2[nH]c(=O)c(CNC(C)(C)C)cc2c1 | active: -107%
26 | CCOC(=O)N1CCN(C(=O)c2ccc(Cl)c(S(=O)(=O)Nc3ccccc3)c2)CC1 | inconclusive: -72.3%
27 | O=C(O)C1CSC2c3ccccc3C(=O)N12 (configuration not stated) | inconclusive: -48.6%
28 | COc1cc2c(cc1OC)C1C/C(=N\O)C(CC(C)C)CN1CC2 (configuration not stated) | inconclusive: -43.5%
29 | COC(=O)COc1ccc(S(=O)(=O)Nc2ccc(C(N)=O)cc2)cc1Cl | active: -92.2%
30 | COc1cc2cc(C#N)c(SCC(=O)N3CCOCC3)nc2cc1OC | active: -100%
31 | O=S(=O)(c1cc(Cl)ccc1Br)N1CCCCC1 | inconclusive: -60.1%
32 | Cn1c(SCc2nc(-c3ccc(Cl)cc3)no2)nnc1-c1cccs1 | active: -111%
33 | O=c1[nH]c(NCc2ccccc2)nc2c1CCC2 | inconclusive: -38.2%
34 | Cc1ccc(NCc2nnc(SCC#N)o2)c(C)c1 | active: -100%
35 | O=C(c1ccc(-n2c(SCc3cccc(F)c3)nc3ccccc3c2=O)cc1)N1CCOCC1 | inactive: -24.9%
36 | c1ccc(CCCc2nc(-c3ccccn3)no2)cc1 | inconclusive: -35%
37 | NC(=O)c1ccccc1N=Cc1ccc2ccccc2c1 | inconclusive: -54.9%
38 | O=C(c1ccc(S(=O)(=O)c2ccccc2Cl)c([N+](=O)[O-])c1)N1CCN(Cc2ccccc2)CC1 | inconclusive: -35.8%
39 | C=CCN(C(=O)Cn1ncc2c1-c1cc(C)ccc1OC2)c1ccccc1 | inconclusive: -31.2%
40 | Cc1ccc(CN2CCN(/N=C/c3cc(Br)ccc3O)CC2)cc1 | inconclusive: -65.9%
41 | O=C(CSc1nc2c(sc3ccccc32)c(=O)n1CCO)NCC1CCCO1 (configuration not stated) | inconclusive: -32.9%
42 | Cc1onc(-c2ccccc2Cl)c1C(=O)Nc1ccc(-c2cn3cccnc3n2)cc1 | active: -91.1%
43 | Cc1cc(NCCNC2=CC(=O)CCC2)nc2ccccc12 | inconclusive: -63.1%
44 | CCCc1cc(C(=O)Nc2sc(C)c(C)c2C(=O)OCC)no1 | inconclusive: -52.3%
45 | COc1ccc(-c2nc3ncccn3c2Nc2ccc3c(c2)OCCO3)cc1 | inconclusive: -44.2%
46 | Cc1ccc(NC(=S)N2CCN(c3ncccn3)CC2)c(C)c1 | inconclusive: -52.8%

Row | SMILES | activity change (PNC), negative = inhibition
47 | CC(c1ccc(Cl)cc1)n1c(-c2ccc3ccccc3n2)n[nH]c1=S (configuration not stated) | inconclusive: -31.2%
48 | COc1ccc(NC(=O)N2CCC(c3nc(-c4cccs4)no3)CC2)cc1 | inconclusive: -42.4%
49 | CCOc1ccc(-c2[nH]ncc2Oc2cccc(OC)c2)c(O)c1 | inconclusive: -32.3%
50 | CCOC(=O)CSC1=C(C#N)C(c2ccccc2OC)CC(=O)N1 (configuration not stated) | inconclusive: -46.7%
51 | Cc1c(Cl)c([N+](=O)[O-])nn1CCCC(=O)NC(C)c1ccccc1 (configuration not stated) | active: -83.2%
52 | Cc1cc(C)c2sc(NNC(=O)c3ccc(S(=O)(=O)N4CCc5ccccc5C4)cc3)nc2c1 | inactive: 41.7%
53 | O=C(O)CCc1ccc(-c2ccc(F)cc2)n1CCC(=O)O | inconclusive: -55.2%
54 | O=S(=O)(Cc1ccc(Cl)cc1)Nc1ccc2c(c1)OCO2 | inconclusive: -41.2%
55 | COc1ccc(Cl)cc1NC(=O)Cn1cccc1 | inactive: 33.6%
56 | COc1cccc(OC)c1Oc1ccc(C(F)(F)F)cn1 | inconclusive: -36.8%
57 | CC(C)(C)CC(C)(C)NCC(O)COCCOc1ccc(Br)cc1 (configuration not stated) | inactive: 6.23%
58 | Cc1ccc(C(=O)Oc2ccccc2N2C(=O)C3C4CCC(C4)C3C2=O)cc1 (configuration not stated) | inconclusive: -56.3%
59 | COc1ccc(C2N=C(c3ccccc3)C(C)(C)N2O)cc1 (configuration not stated) | inconclusive: -77%
60 | CSc1nc2c(c(=O)[nH]1)CCCC2 | inactive: -4.66%
61 | CCC(C)Nc1ncnc2c1cnn2Cc1ccc(Cl)cc1 (configuration not stated) | inconclusive: -40%
62 | CCOC(=O)c1ccc(NC(=O)C2CCN(S(=O)(=O)CC)CC2)cc1 | inconclusive: -38%
63 | O=C(CCSc1nc(-c2ccco2)cc(C(F)(F)F)n1)N1CCN(c2ccccn2)CC1 | inconclusive: -36.1%
64 | c1ccc(-n2nnnc2NCCc2c[nH]c3ccccc23)cc1 | inactive: -4.58%
65 | Cc1cc2ncn(C(=O)c3c(-c4ccccc4Cl)noc3C)c2cc1C | inconclusive: -40.6%
66 | COc1cc2c(cc1OC)CN(C(=S)Nc1c(C)cccc1C)CC2 | inconclusive: -44.6%
67 | COc1cc(C(=O)N/N=C(\C)Cn2nc([N+](=O)[O-])cc2C)ccc1O | inactive: 19.2%
68 | Cc1ccc(-c2nnc(SCc3nc4ccccc4[nH]3)n2Cc2ccco2)cc1 | inactive: 18.2%
69 | COC(=O)c1ccc(C)c(NC(=O)CCc2ccc(OC)cc2)c1 | inactive: -7.34%

Looked up above.
`Cc1ccc(NC(=S)NC(NC(=O)Cc2cccc3ccccc23)C(Cl)(Cl)Cl)cc1` (configuration not stated) | activity change (PNC), negative = inhibition: inconclusive: -48.1%
`CC(c1ccc(Cl)cc1)n1c(-c2ccc3ccccc3n2)n[nH]c1=S` (configuration not stated) | activity change (PNC), negative = inhibition: inconclusive: -31.2%
`O=C(c1ccc(S(=O)(=O)c2ccccc2Cl)c([N+](=O)[O-])c1)N1CCN(Cc2ccccc2)CC1` | activity change (PNC), negative = inhibition: inconclusive: -35.8%
`Cc1ccc(CN2CCN(/N=C/c3cc(Br)ccc3O)CC2)cc1` | activity change (PNC), negative = inhibition: inconclusive: -65.9%
`O=C(c1ccc2c(Cl)c3c(nc2c1)CCCC3)N1CCN(c2ccc(F)cc2)CC1` | activity change (PNC), negative = inhibition: inactive: 7.13%
`CCOC(=O)c1ccc(NC(=O)C2CCN(S(=O)(=O)CC)CC2)cc1` | activity change (PNC), negative = inhibition: inconclusive: -38%
`COc1ccc(NC(=O)C2CCC(=O)N2)cc1` (configuration not stated) | activity change (PNC), negative = inhibition: inconclusive: -51.6%

Going on with the list:

Row | SMILES | activity change (PNC), negative = inhibition
70 | O=C(Nc1ccc2c(c1)OCCO2)c1ccc(S(=O)(=O)N2CCCCC2)cc1 | inconclusive: -30.7%
71 | CCCC(C)NC(=O)COC(=O)c1ccc(Cl)c(S(N)(=O)=O)c1 (configuration not stated) | inconclusive: -43.8%
72 | O=C1OCCC1Sc1nnc(-c2ccccc2)o1 (configuration not stated) | inactive: -14.7%
73 | CCOC(=O)c1[nH]c2ccc(C)cc2c1NC(=O)CN1CCCCC1 | inconclusive: -65%
74 | O=C1c2ccccc2C(=O)N1CCCc1nc(-c2ccc(Cl)cc2)no1 | inconclusive: -38.6%
75 | CCOC(=O)C1CCN(C/C=C/c2ccccc2OC)CC1 | inconclusive: -35.8%
76 | COc1cccc(C2C(C(=O)c3cccs3)=C(O)C(=O)N2CCCn2ccnc2)c1OC (configuration not stated) | active: -96.5%
77 | CC(=O)Nc1sc2c(c1C(c1ccc(Cl)cc1)N1CCOCC1)CCCC2 (configuration not stated) | active: -106%
78 | CCOc1ccc(CC(=O)NNC(=S)Nc2ccccc2)cc1Br | inactive: 65.3%
79 | Cc1ccccc1C(=O)Nc1ccc2c(c1)OCO2 | inconclusive: -30%
80 | CCSc1nnc(NC(=O)[C@@H](NC(=O)c2cccc(C)c2)C(C)C)s1 | inactive: 7.18%
81 | Cc1nnc(SCC(=O)OC2CC(C)CCC2C(C)C)[nH]c1=O (configuration not stated) | inactive: -3.08%
82 | O=C(NC1CCCC1)C(c1ccccc1)N(C(=O)c1ccno1)c1cccnc1 (configuration not stated) | inconclusive: -65.6%
83 | Cc1occc1-c1nnc(SCC(N)=O)n1Cc1ccccc1 | inconclusive: -32.2%
84 | O=C(CSc1nc(Nc2ccccc2)nc(N2CCOCC2)n1)N1CCCC1 | inconclusive: -52%
85 | CCN(CC)S(=O)(=O)C1CCS(=O)(=O)C1 (configuration not stated) | inconclusive: -41.5%
86 | CCN(CC)C(=O)C(Cc1ccccc1)N1C(=O)c2ccccc2C1=O (configuration not stated) | inconclusive: -31.5%
87 | C/C(=N\N=C(N)N)c1ccc(Cl)cc1 | inconclusive: -38.8%
88 | COC(=O)c1ccc(N2C(=O)CC(N3CCN(C(=O)c4ccco4)CC3)C2=O)cc1 (configuration not stated) | inactive: 27%
89 | COC(=O)C1C(=O)C=C(N2CCOCC2)CC1(C)C (configuration not stated) | inconclusive: -36.7%
90 | CCOC(=O)N1CCN(C(=O)CN(C2CCCCC2)S(=O)(=O)c2ccc(C)cc2)CC1 | inconclusive: -48.8%
91 | COc1cccc(Cn2cccc(NC(=O)Nc3ccc(C#N)cc3)c2=O)c1 | inconclusive: -63.7%
92 | CCOc1ccc(CCNC(=O)C2CCN(S(=O)(=O)N3CCCCC3)CC2)cc1OCC | inactive: 83.7%
